Data published in US7288567B2, “Inhibitors of histone deacetylase” (Methylgene Inc., priority 2000, dated 2007).
Where two headings read alike, the source gives them in different places. The match of structure and compound is tentative.

By UniProt entry, the sequences of proteins in these tests, tags left out.
UniProt Q13547, whole entry: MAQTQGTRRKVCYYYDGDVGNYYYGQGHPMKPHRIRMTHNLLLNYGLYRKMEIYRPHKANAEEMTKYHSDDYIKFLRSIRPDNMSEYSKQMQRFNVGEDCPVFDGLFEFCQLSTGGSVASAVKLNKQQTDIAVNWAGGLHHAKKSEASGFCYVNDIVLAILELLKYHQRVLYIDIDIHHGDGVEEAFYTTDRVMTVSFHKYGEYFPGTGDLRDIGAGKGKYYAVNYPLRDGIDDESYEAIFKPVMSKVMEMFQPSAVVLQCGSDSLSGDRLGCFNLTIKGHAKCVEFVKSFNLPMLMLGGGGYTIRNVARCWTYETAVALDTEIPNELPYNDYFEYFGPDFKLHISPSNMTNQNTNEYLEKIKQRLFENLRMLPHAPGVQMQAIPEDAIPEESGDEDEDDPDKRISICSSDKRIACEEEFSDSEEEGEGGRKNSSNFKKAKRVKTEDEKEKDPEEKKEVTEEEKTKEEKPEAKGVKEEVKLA

What was measured:
[1] = molecular target: recombinant human HDAC-1 enzyme (rHDAC-1) (Homo sapiens, UniProt Q13547); test: Histone deacetylase inhibition, recombinant human HDAC-1; format: biochemical; details: read-out: rHDAC-1 IC50, cloned recombinant human HDAC-1, Baculovirus insect cell expression
[2] = system: histone deacetylase enzyme in nuclear extracts from H446 cells (pooled HDACs); test: Histone deacetylase inhibition, H446 nuclear extracts (pooled HDACs); format: biochemical, human; details: read-out: pooled HDACs IC50; H446 nuclear extract, [3H]-acetylated histone substrate

O=C(CCCCCCC(=O)c1ccc(-c2ccccc2)cc1)Nc1nccs1
IC50 [1]: 23 µM

O=C(CCCCCC(=O)c1ccc2ccccc2c1)NO
IC50 [2]: 0.35 µM

Nc1ccccc1NC(=O)CCCCCCC(=O)c1ccc(-c2ccc(Br)cc2)cc1
IC50 ([1]; tested form: HCl): 4 µM
